PMC10442232
These are yes or no findings as the source states them, for the method shown. Binding calls can cover weak binding; strength is not graded here.

By UniProt entry, the sequences of proteins in these tests, tags left out.
UniProt Q12962: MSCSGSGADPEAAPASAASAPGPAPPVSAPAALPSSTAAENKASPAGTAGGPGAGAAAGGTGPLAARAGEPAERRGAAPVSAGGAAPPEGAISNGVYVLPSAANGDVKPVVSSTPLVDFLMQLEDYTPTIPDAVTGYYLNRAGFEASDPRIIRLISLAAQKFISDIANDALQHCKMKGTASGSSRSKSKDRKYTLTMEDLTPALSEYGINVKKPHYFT
UniProt Q16514: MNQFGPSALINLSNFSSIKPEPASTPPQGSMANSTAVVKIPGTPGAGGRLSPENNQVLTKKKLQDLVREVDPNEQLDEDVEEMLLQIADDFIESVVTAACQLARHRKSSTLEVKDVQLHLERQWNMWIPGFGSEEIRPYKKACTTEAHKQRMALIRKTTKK
UniProt Q6P1X5: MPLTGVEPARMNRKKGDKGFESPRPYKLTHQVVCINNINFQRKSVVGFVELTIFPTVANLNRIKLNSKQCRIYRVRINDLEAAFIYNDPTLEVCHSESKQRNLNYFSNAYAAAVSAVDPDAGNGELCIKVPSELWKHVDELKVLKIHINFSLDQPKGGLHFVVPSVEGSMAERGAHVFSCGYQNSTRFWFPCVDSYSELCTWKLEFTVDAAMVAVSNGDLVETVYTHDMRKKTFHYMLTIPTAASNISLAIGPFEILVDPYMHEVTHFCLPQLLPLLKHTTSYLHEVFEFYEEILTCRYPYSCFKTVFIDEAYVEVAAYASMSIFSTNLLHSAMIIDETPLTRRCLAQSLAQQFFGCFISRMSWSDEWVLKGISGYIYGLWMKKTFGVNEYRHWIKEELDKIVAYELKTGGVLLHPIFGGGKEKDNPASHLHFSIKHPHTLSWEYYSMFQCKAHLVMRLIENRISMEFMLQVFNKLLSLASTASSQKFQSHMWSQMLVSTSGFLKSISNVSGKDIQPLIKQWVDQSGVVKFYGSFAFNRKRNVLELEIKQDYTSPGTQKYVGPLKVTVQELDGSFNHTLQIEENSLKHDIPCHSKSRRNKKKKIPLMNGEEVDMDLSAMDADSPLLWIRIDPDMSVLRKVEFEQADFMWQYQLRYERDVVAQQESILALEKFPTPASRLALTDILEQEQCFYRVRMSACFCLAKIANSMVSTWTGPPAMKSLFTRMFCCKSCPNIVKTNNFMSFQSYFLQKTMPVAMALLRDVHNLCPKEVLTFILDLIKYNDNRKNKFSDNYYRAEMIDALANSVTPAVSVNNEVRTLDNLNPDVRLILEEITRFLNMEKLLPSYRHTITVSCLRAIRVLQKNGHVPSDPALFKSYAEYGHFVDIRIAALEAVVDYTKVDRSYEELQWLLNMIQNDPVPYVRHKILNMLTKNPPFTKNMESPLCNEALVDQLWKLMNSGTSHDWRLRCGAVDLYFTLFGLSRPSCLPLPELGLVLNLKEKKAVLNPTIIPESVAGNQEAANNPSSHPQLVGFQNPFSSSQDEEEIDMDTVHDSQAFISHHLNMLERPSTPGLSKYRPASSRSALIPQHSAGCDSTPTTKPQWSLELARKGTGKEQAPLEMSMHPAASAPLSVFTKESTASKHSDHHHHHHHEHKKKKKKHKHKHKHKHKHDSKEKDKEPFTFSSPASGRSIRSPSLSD
UniProt O00268: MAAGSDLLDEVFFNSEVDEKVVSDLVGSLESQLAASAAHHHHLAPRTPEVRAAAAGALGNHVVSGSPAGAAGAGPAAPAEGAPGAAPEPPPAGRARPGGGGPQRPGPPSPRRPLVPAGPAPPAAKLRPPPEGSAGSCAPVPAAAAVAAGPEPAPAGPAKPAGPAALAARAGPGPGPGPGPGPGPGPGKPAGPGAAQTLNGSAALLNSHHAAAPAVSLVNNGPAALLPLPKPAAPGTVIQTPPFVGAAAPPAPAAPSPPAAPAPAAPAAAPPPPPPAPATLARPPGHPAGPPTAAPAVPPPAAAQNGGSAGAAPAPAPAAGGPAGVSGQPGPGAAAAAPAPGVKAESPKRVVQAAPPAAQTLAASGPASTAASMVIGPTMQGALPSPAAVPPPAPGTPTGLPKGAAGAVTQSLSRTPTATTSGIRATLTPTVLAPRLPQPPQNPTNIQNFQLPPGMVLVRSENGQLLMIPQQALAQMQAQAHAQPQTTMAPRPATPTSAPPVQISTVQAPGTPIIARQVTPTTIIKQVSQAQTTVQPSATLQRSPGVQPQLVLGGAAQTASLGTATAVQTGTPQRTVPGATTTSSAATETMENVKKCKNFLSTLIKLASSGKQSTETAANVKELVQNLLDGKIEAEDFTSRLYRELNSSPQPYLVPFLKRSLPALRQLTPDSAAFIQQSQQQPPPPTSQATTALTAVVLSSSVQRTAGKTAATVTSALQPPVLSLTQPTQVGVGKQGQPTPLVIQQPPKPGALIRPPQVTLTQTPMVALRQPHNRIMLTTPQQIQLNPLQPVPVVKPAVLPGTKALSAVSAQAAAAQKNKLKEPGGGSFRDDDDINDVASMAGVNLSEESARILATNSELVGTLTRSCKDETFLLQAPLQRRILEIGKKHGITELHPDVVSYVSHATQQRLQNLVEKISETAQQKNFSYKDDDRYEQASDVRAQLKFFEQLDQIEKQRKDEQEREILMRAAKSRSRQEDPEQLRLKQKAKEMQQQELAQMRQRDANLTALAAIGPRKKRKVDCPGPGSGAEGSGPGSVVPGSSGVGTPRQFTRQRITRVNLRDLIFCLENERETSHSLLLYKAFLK
UniProt Q15542: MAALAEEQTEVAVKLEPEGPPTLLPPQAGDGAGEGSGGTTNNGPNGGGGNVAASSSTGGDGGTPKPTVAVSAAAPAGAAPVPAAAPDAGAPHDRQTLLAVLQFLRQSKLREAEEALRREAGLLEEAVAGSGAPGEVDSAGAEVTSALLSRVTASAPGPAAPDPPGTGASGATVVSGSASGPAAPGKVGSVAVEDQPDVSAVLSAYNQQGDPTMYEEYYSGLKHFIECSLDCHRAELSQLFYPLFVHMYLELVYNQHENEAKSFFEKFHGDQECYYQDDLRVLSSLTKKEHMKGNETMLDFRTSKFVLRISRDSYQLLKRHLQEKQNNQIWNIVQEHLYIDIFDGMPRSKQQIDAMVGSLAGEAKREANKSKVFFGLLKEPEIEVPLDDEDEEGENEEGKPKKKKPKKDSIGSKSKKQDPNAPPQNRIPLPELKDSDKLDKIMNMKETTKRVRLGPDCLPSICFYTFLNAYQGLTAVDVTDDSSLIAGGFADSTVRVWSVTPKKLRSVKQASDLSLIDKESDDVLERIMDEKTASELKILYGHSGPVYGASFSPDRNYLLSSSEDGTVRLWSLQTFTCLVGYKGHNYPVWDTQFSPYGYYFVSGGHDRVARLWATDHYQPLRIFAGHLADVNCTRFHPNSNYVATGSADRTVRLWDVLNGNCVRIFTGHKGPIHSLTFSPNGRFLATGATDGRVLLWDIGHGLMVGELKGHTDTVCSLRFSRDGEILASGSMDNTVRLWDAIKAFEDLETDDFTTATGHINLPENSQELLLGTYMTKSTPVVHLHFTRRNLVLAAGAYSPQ
UniProt Q7Z7C8: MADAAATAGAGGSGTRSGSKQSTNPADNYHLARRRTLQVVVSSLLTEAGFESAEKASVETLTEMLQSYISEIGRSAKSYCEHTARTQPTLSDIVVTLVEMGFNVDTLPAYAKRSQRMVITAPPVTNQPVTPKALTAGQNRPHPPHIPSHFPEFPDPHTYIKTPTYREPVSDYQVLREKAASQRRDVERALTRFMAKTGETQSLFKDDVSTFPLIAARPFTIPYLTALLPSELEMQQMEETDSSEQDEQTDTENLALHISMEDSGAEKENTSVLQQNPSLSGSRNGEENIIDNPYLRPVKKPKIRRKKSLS
UniProt P20226: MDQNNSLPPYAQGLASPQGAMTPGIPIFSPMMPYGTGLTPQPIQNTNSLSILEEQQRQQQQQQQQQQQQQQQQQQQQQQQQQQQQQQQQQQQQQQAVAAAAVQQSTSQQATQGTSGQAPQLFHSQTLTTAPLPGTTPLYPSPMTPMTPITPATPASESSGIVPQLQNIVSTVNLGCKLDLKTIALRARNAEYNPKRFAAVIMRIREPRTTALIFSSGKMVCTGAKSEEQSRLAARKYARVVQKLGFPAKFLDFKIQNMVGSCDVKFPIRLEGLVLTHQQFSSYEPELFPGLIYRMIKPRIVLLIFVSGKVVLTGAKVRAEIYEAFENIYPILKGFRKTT
UniProt P49848: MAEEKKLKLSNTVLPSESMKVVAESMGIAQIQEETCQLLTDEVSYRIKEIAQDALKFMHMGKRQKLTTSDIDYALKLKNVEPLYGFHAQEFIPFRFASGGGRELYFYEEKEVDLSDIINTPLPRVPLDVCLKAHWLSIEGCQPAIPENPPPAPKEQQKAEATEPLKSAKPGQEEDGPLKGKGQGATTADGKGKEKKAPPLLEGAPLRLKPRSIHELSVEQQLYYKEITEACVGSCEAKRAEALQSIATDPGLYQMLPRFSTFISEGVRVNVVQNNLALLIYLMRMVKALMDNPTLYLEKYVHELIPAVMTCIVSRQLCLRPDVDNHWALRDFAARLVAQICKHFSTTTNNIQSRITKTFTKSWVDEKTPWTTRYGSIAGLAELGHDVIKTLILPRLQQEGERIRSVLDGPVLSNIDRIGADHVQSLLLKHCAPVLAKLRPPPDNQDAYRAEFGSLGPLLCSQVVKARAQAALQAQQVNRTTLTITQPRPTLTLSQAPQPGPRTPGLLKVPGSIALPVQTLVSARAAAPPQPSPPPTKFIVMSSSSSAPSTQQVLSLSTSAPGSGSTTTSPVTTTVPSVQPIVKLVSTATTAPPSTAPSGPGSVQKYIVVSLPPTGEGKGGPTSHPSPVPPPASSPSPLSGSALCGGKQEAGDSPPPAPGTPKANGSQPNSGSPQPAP
UniProt Q15545: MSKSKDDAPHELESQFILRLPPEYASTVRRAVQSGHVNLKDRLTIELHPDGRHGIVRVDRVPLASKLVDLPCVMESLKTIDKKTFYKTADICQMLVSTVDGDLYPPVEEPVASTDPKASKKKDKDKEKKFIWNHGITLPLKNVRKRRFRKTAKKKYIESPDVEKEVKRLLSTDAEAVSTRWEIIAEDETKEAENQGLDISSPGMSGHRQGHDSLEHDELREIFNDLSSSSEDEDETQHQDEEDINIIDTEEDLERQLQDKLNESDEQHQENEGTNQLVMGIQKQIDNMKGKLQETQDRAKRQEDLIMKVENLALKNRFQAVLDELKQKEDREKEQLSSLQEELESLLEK

Legend:
GFP-TAF10 (human) = GFP-TAF10 (human) (UniProt Q12962); test: RNA immunoprecipitation (GFP-RIP) with RT-qPCR; GFP-Trap agarose beads, polysome extracts of HeLa lines expressing N-terminally GFP-tagged TFIID subunits, cycloheximide, 4 h at 4 °C; the partner is scored through enrichment of its mRNA over mock IP (more than fourfold of the control PPIB)
GFP-TAF12 (human) = GFP-TAF12 (human) (UniProt Q16514); test: as above
GFP-TAF2 (human) = GFP-TAF2 (human) (UniProt Q6P1X5); test: as above
GFP-TAF4 (human) = GFP-TAF4 (human) (UniProt O00268); test: as above
GFP-TAF5 (human) = GFP-TAF5 (human) (UniProt Q15542); test: as above
GFP-TAF8 (human) = GFP-TAF8 (human) (UniProt Q7Z7C8); test: as above
GFP-TBP (human) = GFP-TBP (human) (UniProt P20226); test: as above
[1] = target: TAF10 (human (endogenous in HeLa)) (UniProt Q12962); test: RNA immunoprecipitation (RIP) with RT-qPCR; antibody against the endogenous bait on protein G Dynabeads, HeLa polysome extract, cycloheximide (puromycin as control), overnight 4 °C, washes with 350 mM KCl; the partner is scored through enrichment of its mRNA (nascent chain on the ribosome)
[2] = target: TAF6 (human (endogenous in HeLa)) (UniProt P49848); test: as above
[3] = target: TAF7 (human (endogenous in HeLa)) (UniProt Q15545); test: as above

Measured: binding

TAF1 (from UniProt P21675-1)
binds: all assays above
